{
  "source": "patent US20020102280A1",
  "about": "“Solvent systems for pharmaceutical agents” (priority 2000, published 2002)",
  "origin": "cited, not measured here",
  "settings": "cited from earlier work",
  "data": [
    {"compound": "CC(=O)O[C@H]1C(=O)[C@@]2(C)[C@H]([C@H](OC(=O)c3ccccc3)[C@]3(O)C[C@H](OC(=O)[C@H](O)[C@@H](NC(=O)c4ccccc4)c4ccccc4)C(C)=C1C3(C)C)[C@]1(OC(C)=O)CO[C@@H]1C[C@@H]2O", "note": "[Paclitaxel, paclitaxel]", "values": [
      {"measurement": "solubility in water (in words)", "value": "exceedingly low solubility in water"}
    ]}
  ]
}
